In PMC6045618, “Novel natural killer cell-mediated cancer immunotherapeutic activity of anisomycin against hepatocellular carcinoma cells” (Scientific Reports, 2018):

Test system: HepG2 HCC cells
Experiment: Affymetrix whole-genome expression microarray, HepG2
Type: cell-based
Conditions: HepG2, 0.2 µM, 2 days

COc1ccc(C[C@H]2NC[C@H](O)[C@H]2OC(C)=O)cc1 [anisomycin]
Number of probes downregulated by ≥2-fold versus vehicle: 1,195 | Number of probes upregulated by ≥2-fold versus vehicle: 1,173
